Data from PubChem BioAssay AID2685 (National Center for Advancing Translational Sciences (NCATS), 2010).
The other results are listed elsewhere or left out. These are further read-outs of the screen, such as a control signal, another cell line or another target. No call is given for them. Most of these compounds were active or inconclusive in the main read-out, so they are no random draw. Words in brackets tell the shape of the fitted curve; partial curves, single points and poor fits give uncertain potencies.

Experiment: qHTS Assay for Lipid Storage Modulators in Drosophila S3 Cells;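 as to cell number change: cells counted by Cell Tracker Red CMTPX staining in the red channel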
Conditions: BODIPY lipid droplet fluorescence, 18-24 h; for cell number change: measured here: cell count max response, cells fed with added oleic acid
Outline: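 Drosophila S3 cells got compounds at several concentrations plus oleic acid (400 uM solution). Laser-scanning cytometry with 488 nm excitation read lipid droplets at 500-530 nm and cells at 575-640 nm. Percent activity was relative to 20 uM Triacsin C.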

[1] = measured here: lipid fluorescence (Fed channel) AC50, cells fed with added oleic acid
[2] = measured here: cell number channel AC50, cells fed with added oleic acid

| Structure (SMILES) | cell number change | AC50 [1] | AC50 [2] |
| --- | --- | --- | --- |
| Clc1ccc(-c2nc3ncccn3c2Nc2ccc3c(c2)OCO3)cc1 | 16.1% | 18.4 µM [rising, single point] |  |
| COCCNC(=O)NC(=O)CN1C(=O)NC(Cc2c[nH]c3ccccc23)C1=O (stereo unspecified) | -36.2% | 6.51 µM [falling, single point] | 29.1 µM [falling, single point] |
| CCOC(=O)c1c(C)[nH]c(C)c1S(=O)(=O)N(C)CC(=O)Nc1ccccc1F | -17% | 29.1 µM [falling, partial curve, poor fit] |  |
| CCn1c(=O)n(CC)c2cc(S(=O)(=O)Nc3c(C)cccc3C)ccc21 | -15% | 0.00517 µM [falling, full curve, poor fit] |  |
| CCNc1ccccc(-c2ccc3ccccc3n2)c1=O | -17.8% | 32.6 µM [rising, single point] |  |
| CCc1ccccc1NC(=O)c1ccc(CN2CCC(Cc3ccccc3)CC2)cc1 | 19.2% |  |  |
| COc1ccc(/C(C)=N/Nc2cccc(C(=O)O)c2)cc1OC |  | 4.11 µM [rising, partial curve] | 2.06 µM [rising, partial curve] |
| O=C(COC(=O)c1ccc2c(c1)S(=O)(=O)c1ccccc1C2=O)NC1CC1 | 15.8% | 0.184 µM [falling, full curve, poor fit] |  |
| COc1cccc(OCCNC(=O)c2ccc(C)cc2)c1 |  |  | 5.8 µM [rising, single point] |
| CCn1cc(C(=O)Nc2cccc(C(=O)OC)c2)c(=O)c2ccc(C)nc21 | 15.9% | 0.411 µM [rising, single point] |  |
| COc1ccccc1N(CC(=O)NCCSCc1ccccc1)S(=O)(=O)c1ccc(C)cc1 | -1.32% | 3.55 µM [falling, single point] |  |
| Cc1cccc(-n2c(N)cc(=O)nc2SCC(=O)Nc2nnc(C)s2)c1 | -13.3% | 6.51 µM [falling, single point] |  |
| COc1ccc(C(=O)N2CCN(C(=O)Cc3ccccc3)CC2)cc1 | 10.2% |  | 0.92 µM [falling, full curve, poor fit] |
| Cc1cc(C)cc(OC(=O)C23CCC(C)(C(=O)O2)C3(C)C)c1 (stereo unspecified) | 23.6% | 2.82 µM [rising, partial curve] |  |
| Cc1cccc(C)c1NC(=O)C1c2cccc[n+]2CC(=O)N1Cc1cccs1 (stereo unspecified) | 7.62% | 32.6 µM [rising, single point] |  |
| O=C(Nc1ccc(F)cc1)C(=O)c1cn(CC(=O)N2CCOCC2)c2ccccc12 | -20.9% | 29.1 µM [rising, single point] |  |
| CN(Cc1ccccc1)C(=O)c1ccc2c(c1)OCCO2 | 24.7% | 0.092 µM [rising, full curve, poor fit] | 2.91 µM [rising, full curve, poor fit] |
| COc1ccc(Cl)cc1NC(=O)CCS(=O)(=O)c1cc2c(cc1C)NC(=O)CO2 | -1.44% | 0.651 µM [falling, full curve] |  |
| CCCCn1c(N)c(N(CCC(C)C)C(=O)C2CCCO2)c(=O)[nH]c1=O (stereo unspecified) | 8.5% |  |  |
| COc1ccc(C2=NS(=O)(=O)N(C)C(C(=O)N(C)Cc3ccccc3)=C2)cc1 | -1.41% | 29.1 µM [falling, single point] |  |
| CC(=O)N1N=C(c2ccc(C)cc2)OC1c1cccnc1 (stereo unspecified) | -22.1% |  |  |

| Structure (SMILES) | cell number change | AC50 [1] | AC50 [2] |
| --- | --- | --- | --- |
| CCN(CC(=O)NCc1ccc(F)cc1)C(=O)C1CCN(C(=O)Nc2ccccc2)CC1 | -29.3% |  |  |
| CCCCCCCC(=O)OC(CN1CCCCCC1)CN1CCCC1=O (stereo unspecified) | 1.28% |  |  |
| COc1cc(S(=O)(=O)Nc2ccc3nc(C)sc3c2)ccc1NC(C)=O | -34% | 6.51 µM [falling, partial curve] | 32.6 µM [falling, single point] |
| CCCCOc1ccc(/C=N/NC(=S)Nc2cccc(C)c2C)cc1 | -2.56% |  |  |
| O=S(=O)(NCc1cccs1)c1ccc(Cl)s1 | -8.29% | 29.1 µM [rising, single point] |  |
| COc1cc(Br)cc(/C=C/c2ccc3cccc(O)c3n2)c1O | -18.9% |  |  |
| CC(=O)N1N=C(c2cccc(Cl)c2)OC1c1cccc([N+](=O)[O-])c1 (stereo unspecified) | 14.6% |  |  |
| COc1ccccc1C1(O)CC2CCC(C1)N2S(=O)(=O)c1ccc(C(C)=O)cc1 (stereo unspecified) | -3.32% |  | 0.00517 µM [rising, full curve, poor fit] |
| Cc1cc(NC(=O)CCc2ccccc2)c([N+](=O)[O-])cc1C | 29.1% | 1.3 µM [rising, full curve] |  |
| O=C1CC(C(=O)Nc2ccccc2)N=C(N2CCOCC2)N1 (stereo unspecified) | -4.05% | 13 µM [falling, single point] |  |
| COc1ccccc1OCCNC(=O)C1CC(=O)N(c2ccccc2OC)C1 (stereo unspecified) | -29.3% |  | 0.0326 µM [falling, full curve, poor fit] |
| O=C(CCn1c(=S)oc2ccccc21)Nc1cccc(O)c1 | 1.53% |  | 0.731 µM [falling, single point] |
| CCN1CCN(C(=S)Nc2ccccc2Cl)CC1 | -34.7% | 0.146 µM [falling, full curve] |  |
| COc1ccccc1NC(=O)C(C)OC(=O)c1cc2ccccc2[nH]1 (stereo unspecified) | -10.3% |  |  |
| Cc1cc(O)c(C)c(O)c1/C=N/NC(=O)c1cccnc1 | -1.55% | 29.1 µM [falling, single point] |  |
| COc1ccc(N2CCN(C(=O)c3ccccc3N(C)S(=O)(=O)c3ccc(C)cc3)CC2)cc1 | 6.23% | 6.51 µM [rising, single point] |  |
| O=C(CSc1nnc(Cc2ccccc2)n1Cc1ccccc1)NCc1ccco1 | -31.9% | 20.6 µM [falling, single point] | 29.1 µM [falling, single point] |
| CC12CCC(=O)N1c1c(sc3nc(N4CCOCC4)c4c(c13)CCCC4)C(=O)N2 (stereo unspecified) | -29.5% | 20.6 µM [falling, single point] |  |
| CC1=C(C#N)C(NC(=O)C2CC2)(C(F)(F)F)C(=O)N1 (stereo unspecified) | -5.61% | 14.6 µM [falling, partial curve, poor fit] |  |
| Cc1ccc(-c2cc(C(=O)O)c3sc(N4CCCCC4)nc3n2)cc1 | -53.3% |  | 18.4 µM [falling, single point] |

Compounds above that contain a thiophene ring, fused or not, in the order listed:

| Structure (SMILES) | cell number change | AC50 [1] | AC50 [2] |
| --- | --- | --- | --- |
| Cc1cccc(C)c1NC(=O)C1c2cccc[n+]2CC(=O)N1Cc1cccs1 (stereo unspecified) | 7.62% | 32.6 µM [rising, single point] |  |
| O=S(=O)(NCc1cccs1)c1ccc(Cl)s1 | -8.29% | 29.1 µM [rising, single point] |  |
| CC12CCC(=O)N1c1c(sc3nc(N4CCOCC4)c4c(c13)CCCC4)C(=O)N2 (stereo unspecified) | -29.5% | 20.6 µM [falling, single point] |  |
